PubChem BioAssay AID1259424 – University of Nebraska Medical Center | 2018

Test: 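Find knockdowns that reproduce the expression shifts seen after KSR1 loss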 (primary screen)
Cells: human HCT116 colon cancer cells
Reagents: siRNA pool against human genes, 50 nM
Measured: 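Six signature mRNAs by branched-DNA multiplex assay, scaled to two housekeeping genes and non-targeting median, log2; matched to mean KSR1 knockdown profile by Pearson correlation and euclidean distance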
Scale: mean correlation with KSR1 profile: higher = expression change more like KSR1 knockdown
The whole screen tested about 14,000 reagents; shown is a part drawn at random. 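Higher correlation or smaller distance means closer resemblance to KSR1 loss; control wells, including KSR1 knockdowns, recur on many plates.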 Not all columns of the deposit are shown. No sequences are given here. The record does not give: the time to read-out.

The opening 4 records, to show the layout:
| gene symbol | mean correlation with KSR1 profile |
| --- | --- |
| NLRP14 (NLR family pyrin domain containing 14) | 0.54 |
| WDR54 (WD repeat domain 54) | 0.704 |
| KLC1 (kinesin light chain 1) | -0.211 |
| CDKN2D (cyclin dependent kinase inhibitor 2D) | 0.299 |

The listing, from the first entry:
| gene symbol | mean correlation with KSR1 profile |
| --- | --- |
| NLRP14 (NLR family pyrin domain containing 14) | 0.54 |
| WDR54 (WD repeat domain 54) | 0.704 |
| KLC1 (kinesin light chain 1) | -0.211 |
| CDKN2D (cyclin dependent kinase inhibitor 2D) | 0.299 |
| JMJD6 | 0.0975 |
| CCAR2 (cell cycle and apoptosis regulator 2) | -0.167 |
| GPR4 (G protein-coupled receptor 4) | 0.425 |
| TMSB4Y (thymosin beta 4 Y-linked) | -0.229 |
| SACM1L (SAC1 like phosphatidylinositide phosphatase) | -0.706 |
| PCGF2 (polycomb group ring finger 2) | -0.079 |
| ALB (albumin) | 0.092 |
| LSM8 (LSM8 homolog, U6 small nuclear RNA associated) | -0.691 |
| RHCG (Rh family C glycoprotein) | -0.253 |
| PLD1 (phospholipase D1) | 0.0373 |
| CASTOR3P (CASTOR family member 3, pseudogene) | 0.346 |
| JOSD1 (Josephin domain containing 1) | 0.0402 |
| MBTPS1 (membrane bound transcription factor peptidase, site 1) | 0.102 |
| CC2D2A (coiled-coil and C2 domain containing 2A) | -0.151 |
| NPIPA1 (nuclear pore complex interacting protein family member A1) | 0.808 |
| RPS26 (ribosomal protein S26) | 0.173 |
| CDK7 (cyclin dependent kinase 7) | -0.228 |
| PIGY (phosphatidylinositol glycan anchor biosynthesis class Y) | 0.0302 |
| CXCL10 (C-X-C motif chemokine ligand 10) | -0.0495 |
| RNF146 (ring finger protein 146) | 0.314 |
| SLC27A5 | -0.208 |
| LATS1 (large tumor suppressor kinase 1) | 0.759 |
| SERPINA6 (serpin family A member 6) | 0.695 |
| KIF11 (kinesin family member 11) | 0.0987 |
| SLC13A1 | 0.448 |
| OR4D1 (olfactory receptor family 4 subfamily D member 1) | 0.544 |
| ACADVL (acyl-CoA dehydrogenase very long chain) | -0.0869 |
| SAE1 (SUMO1 activating enzyme subunit 1) | -0.581 |
| TMA7 (translation machinery associated 7 homolog) | 0.436 |
| CFAP43 (cilia and flagella associated protein 43) | 0.515 |
| BUD31 (BUD31 spliceosome associated protein) | 0.144 |
| SH3KBP1 (SH3 domain containing kinase binding protein 1) | -0.214 |
| MAP9 (microtubule associated protein 9) | 0.39 |
| BTN3A3 (butyrophilin subfamily 3 member A3) | -0.133 |
| MYL4 (myosin light chain 4) | -0.377 |
| COL4A6 (collagen type IV alpha 6 chain) | 0.00647 |
| ME3 (malic enzyme 3) | -0.507 |
| HBG2 (hemoglobin subunit gamma 2) | 0.263 |
| CHRNA1 (cholinergic receptor nicotinic alpha 1 subunit) | 0.132 |
| ECPAS (Ecm29 proteasome adaptor and scaffold) | 0.0318 |
| SACS (sacsin molecular chaperone) | -0.464 |
| PON1 (paraoxonase 1) | 0.379 |
| FAH (fumarylacetoacetate hydrolase) | 0.124 |
| CDSN (corneodesmosin) | 0.00668 |
| ZNF335 (zinc finger protein 335) | -0.14 |
| MAPK7 (mitogen-activated protein kinase 7) | 0.797 |
